The results in this text go back to PMC11096176.

The target of assay [1] is T1, Flag-tagged TBX3 (UniProt O15119).
T1 sequence: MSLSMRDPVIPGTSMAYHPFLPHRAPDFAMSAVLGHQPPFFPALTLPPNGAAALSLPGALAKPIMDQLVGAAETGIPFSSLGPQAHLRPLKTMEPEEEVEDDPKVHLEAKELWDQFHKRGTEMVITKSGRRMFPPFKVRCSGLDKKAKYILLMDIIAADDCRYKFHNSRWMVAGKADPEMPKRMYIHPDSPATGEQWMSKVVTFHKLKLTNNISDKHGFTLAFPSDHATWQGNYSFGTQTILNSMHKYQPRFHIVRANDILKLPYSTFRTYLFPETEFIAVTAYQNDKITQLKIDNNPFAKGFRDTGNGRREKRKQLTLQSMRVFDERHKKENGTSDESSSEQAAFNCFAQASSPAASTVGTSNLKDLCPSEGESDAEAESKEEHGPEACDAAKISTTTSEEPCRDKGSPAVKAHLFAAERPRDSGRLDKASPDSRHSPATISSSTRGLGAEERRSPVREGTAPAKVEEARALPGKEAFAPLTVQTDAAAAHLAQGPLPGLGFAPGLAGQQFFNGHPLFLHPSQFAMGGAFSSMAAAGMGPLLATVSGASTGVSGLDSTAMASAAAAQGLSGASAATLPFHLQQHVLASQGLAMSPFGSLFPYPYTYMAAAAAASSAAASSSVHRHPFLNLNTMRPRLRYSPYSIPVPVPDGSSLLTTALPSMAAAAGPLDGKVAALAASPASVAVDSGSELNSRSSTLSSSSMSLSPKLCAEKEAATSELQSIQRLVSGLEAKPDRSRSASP
In words: co-IP; over-expressed HA-USP15 and Flag-TBX3 in HEK293T cell extracts, both directions; lysis buffer 50 mM Tris-HCl pH 7.4, 150 mM NaCl, 5 mM EDTA, 0.5% NP-40.

In assay [2] the target is T2, HA-tagged USP15 (UniProt Q9Y4E8).
T2 sequence: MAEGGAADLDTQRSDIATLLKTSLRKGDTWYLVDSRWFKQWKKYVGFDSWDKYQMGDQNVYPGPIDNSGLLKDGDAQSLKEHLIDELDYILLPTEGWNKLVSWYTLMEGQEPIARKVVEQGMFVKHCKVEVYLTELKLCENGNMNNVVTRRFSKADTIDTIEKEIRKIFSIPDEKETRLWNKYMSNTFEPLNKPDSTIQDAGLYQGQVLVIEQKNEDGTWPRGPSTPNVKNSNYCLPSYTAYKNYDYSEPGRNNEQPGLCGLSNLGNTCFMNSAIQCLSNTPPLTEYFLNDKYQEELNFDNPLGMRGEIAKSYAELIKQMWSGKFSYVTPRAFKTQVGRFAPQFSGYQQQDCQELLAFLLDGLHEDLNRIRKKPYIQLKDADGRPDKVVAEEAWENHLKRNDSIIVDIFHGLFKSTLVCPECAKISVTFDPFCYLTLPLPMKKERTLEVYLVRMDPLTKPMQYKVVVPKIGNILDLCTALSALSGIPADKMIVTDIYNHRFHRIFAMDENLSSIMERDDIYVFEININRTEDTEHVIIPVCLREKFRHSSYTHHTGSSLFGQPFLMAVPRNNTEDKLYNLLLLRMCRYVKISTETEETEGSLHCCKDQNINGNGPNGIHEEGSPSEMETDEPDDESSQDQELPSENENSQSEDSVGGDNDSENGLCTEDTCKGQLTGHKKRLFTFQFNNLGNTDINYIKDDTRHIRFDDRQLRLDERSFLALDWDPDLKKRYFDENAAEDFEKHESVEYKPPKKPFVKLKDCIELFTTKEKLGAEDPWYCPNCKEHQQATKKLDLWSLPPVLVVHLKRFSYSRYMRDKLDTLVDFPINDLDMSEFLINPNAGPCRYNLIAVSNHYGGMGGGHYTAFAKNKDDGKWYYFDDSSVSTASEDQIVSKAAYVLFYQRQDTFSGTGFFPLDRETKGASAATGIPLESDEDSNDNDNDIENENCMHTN
Described as above.

Assay [3] concerns the target T3, TBX3 (endogenous) (human (endogenous in K1 and 8505 C)) (UniProt O15119).
T3 sequence: T1 sequence
In words: proximity ligation; Duolink PLA on fixed, permeabilised K1 cells, endogenous USP15 and TBX3.

The target in assay [4] is T3, TBX3 (endogenous) (human (endogenous in K1 and 8505 C)). In words: co-IP; endogenous TBX3 and USP15 in K1 and 8505 C cells; lysis buffer 50 mM Tris-HCl pH 7.4, 150 mM NaCl, 5 mM EDTA, 0.5% NP-40.

These are yes or no findings as the source states them, for the method shown. Binding seen in cells or lysates may run through a third protein. Some binding calls cover weakened binding; strength is not graded here. For some of these results: Where a sequence is shown, tags or fusion partners need not be part of it.

B1: HA-tagged USP15 (enzyme, UniProt Q9Y4E8-2 1-952)
chain: T2 sequence
In the case of B1, in assay [1], the binding result is reported as “binds”.

B2: Flag-tagged TBX3 (protein, UniProt O15119 1-743)
chain: T1 sequence
With B2, the binding result in assay [2] is “binds”.

B3: USP15 (endogenous) (enzyme, UniProt Q9Y4E8 1-981)
chain: MAEGGAADLDTQRSDIATLLKTSLRKGDTWYLVDSRWFKQWKKYVGFDSWDKYQMGDQNVYPGPIDNSGLLKDGDAQSLKEHLIDELDYILLPTEGWNKLVSWYTLMEGQEPIARKVVEQGMFVKHCKVEVYLTELKLCENGNMNNVVTRRFSKADTIDTIEKEIRKIFSIPDEKETRLWNKYMSNTFEPLNKPDSTIQDAGLYQGQVLVIEQKNEDGTWPRGPSTPKSPGASNFSTLPKISPSSLSNNYNNMNNRNVKNSNYCLPSYTAYKNYDYSEPGRNNEQPGLCGLSNLGNTCFMNSAIQCLSNTPPLTEYFLNDKYQEELNFDNPLGMRGEIAKSYAELIKQMWSGKFSYVTPRAFKTQVGRFAPQFSGYQQQDCQELLAFLLDGLHEDLNRIRKKPYIQLKDADGRPDKVVAEEAWENHLKRNDSIIVDIFHGLFKSTLVCPECAKISVTFDPFCYLTLPLPMKKERTLEVYLVRMDPLTKPMQYKVVVPKIGNILDLCTALSALSGIPADKMIVTDIYNHRFHRIFAMDENLSSIMERDDIYVFEININRTEDTEHVIIPVCLREKFRHSSYTHHTGSSLFGQPFLMAVPRNNTEDKLYNLLLLRMCRYVKISTETEETEGSLHCCKDQNINGNGPNGIHEEGSPSEMETDEPDDESSQDQELPSENENSQSEDSVGGDNDSENGLCTEDTCKGQLTGHKKRLFTFQFNNLGNTDINYIKDDTRHIRFDDRQLRLDERSFLALDWDPDLKKRYFDENAAEDFEKHESVEYKPPKKPFVKLKDCIELFTTKEKLGAEDPWYCPNCKEHQQATKKLDLWSLPPVLVVHLKRFSYSRYMRDKLDTLVDFPINDLDMSEFLINPNAGPCRYNLIAVSNHYGGMGGGHYTAFAKNKDDGKWYYFDDSSVSTASEDQIVSKAAYVLFYQRQDTFSGTGFFPLDRETKGASAATGIPLESDEDSNDNDNDIENENCMHTN
As for B3, the binding result in assay [3] and in assay [4] was “binds” each time.
